The supplement of paper PMC10849652
The list shows a part of the results. Residues, ends and D or L forms follow the SMILES beside them. *: point of attachment. Cbz = O=C(OCc1ccccc1)*

Amino acid sequences for entries named in this document (tags omitted). A change or cut given only in a name is not applied to a line headed by its entry.
UniProt Q9P1F3: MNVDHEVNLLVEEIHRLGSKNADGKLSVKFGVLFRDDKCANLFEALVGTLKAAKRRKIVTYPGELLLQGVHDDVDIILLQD
UniProt Q9H845: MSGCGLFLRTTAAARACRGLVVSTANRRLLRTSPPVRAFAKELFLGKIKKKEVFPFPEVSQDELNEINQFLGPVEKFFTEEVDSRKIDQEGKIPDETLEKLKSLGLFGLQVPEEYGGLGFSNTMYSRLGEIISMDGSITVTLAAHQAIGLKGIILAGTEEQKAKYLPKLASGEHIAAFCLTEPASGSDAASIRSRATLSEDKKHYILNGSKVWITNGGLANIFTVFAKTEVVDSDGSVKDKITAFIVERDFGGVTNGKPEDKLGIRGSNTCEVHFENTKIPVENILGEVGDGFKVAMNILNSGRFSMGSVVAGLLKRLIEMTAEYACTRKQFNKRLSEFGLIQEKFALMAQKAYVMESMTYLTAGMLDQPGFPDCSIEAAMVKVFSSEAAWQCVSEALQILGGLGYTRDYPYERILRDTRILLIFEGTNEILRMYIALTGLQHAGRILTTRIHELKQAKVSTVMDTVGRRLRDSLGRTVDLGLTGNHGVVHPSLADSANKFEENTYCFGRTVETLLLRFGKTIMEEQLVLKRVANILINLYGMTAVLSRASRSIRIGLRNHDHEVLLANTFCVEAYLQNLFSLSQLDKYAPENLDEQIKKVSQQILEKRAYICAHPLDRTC
UniProt Q5T8D3: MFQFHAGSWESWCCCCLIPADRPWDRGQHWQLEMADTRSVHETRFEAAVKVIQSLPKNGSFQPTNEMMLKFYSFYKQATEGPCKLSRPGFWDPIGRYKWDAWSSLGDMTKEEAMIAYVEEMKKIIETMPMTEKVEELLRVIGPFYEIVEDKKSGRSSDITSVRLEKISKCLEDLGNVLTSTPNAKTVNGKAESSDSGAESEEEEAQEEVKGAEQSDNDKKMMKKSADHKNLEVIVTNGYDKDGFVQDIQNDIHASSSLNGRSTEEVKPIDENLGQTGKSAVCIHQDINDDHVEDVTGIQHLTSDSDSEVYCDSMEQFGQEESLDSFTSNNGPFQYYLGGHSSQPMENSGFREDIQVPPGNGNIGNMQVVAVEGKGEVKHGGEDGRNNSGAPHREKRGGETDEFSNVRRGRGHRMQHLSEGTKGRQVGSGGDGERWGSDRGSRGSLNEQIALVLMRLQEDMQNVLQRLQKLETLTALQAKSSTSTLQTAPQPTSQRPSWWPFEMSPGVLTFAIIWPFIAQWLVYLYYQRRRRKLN
UniProt P42684, whole entry, looked up: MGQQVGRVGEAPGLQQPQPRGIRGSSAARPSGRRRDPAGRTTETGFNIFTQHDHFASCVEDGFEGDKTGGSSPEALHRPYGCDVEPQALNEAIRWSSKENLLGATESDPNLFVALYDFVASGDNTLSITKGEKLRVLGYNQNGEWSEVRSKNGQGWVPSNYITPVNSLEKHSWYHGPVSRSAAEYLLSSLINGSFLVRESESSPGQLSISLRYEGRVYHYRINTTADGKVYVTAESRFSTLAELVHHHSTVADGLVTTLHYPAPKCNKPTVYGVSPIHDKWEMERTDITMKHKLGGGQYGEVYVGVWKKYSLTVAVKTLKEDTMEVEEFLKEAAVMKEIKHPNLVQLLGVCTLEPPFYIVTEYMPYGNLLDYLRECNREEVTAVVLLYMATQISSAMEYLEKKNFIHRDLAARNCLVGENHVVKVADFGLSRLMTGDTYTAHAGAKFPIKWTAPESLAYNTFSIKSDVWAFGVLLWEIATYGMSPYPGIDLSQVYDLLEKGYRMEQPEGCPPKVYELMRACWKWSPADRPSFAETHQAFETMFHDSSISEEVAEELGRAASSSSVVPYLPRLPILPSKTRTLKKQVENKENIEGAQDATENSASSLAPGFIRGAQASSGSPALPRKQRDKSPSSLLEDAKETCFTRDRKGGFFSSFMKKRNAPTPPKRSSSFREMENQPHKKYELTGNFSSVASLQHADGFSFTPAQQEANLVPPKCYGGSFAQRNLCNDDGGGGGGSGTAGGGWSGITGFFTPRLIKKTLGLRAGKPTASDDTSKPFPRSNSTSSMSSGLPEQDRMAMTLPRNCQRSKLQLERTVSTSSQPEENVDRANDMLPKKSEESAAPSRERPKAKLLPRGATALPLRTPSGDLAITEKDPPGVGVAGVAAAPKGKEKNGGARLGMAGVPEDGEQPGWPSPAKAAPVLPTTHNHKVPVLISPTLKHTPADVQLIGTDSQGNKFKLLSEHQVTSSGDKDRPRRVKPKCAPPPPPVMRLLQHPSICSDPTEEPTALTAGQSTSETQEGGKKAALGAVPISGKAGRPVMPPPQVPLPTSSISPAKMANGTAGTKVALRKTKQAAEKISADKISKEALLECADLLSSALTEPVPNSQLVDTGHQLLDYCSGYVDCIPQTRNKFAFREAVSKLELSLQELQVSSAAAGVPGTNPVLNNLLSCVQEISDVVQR
UniProt P49748: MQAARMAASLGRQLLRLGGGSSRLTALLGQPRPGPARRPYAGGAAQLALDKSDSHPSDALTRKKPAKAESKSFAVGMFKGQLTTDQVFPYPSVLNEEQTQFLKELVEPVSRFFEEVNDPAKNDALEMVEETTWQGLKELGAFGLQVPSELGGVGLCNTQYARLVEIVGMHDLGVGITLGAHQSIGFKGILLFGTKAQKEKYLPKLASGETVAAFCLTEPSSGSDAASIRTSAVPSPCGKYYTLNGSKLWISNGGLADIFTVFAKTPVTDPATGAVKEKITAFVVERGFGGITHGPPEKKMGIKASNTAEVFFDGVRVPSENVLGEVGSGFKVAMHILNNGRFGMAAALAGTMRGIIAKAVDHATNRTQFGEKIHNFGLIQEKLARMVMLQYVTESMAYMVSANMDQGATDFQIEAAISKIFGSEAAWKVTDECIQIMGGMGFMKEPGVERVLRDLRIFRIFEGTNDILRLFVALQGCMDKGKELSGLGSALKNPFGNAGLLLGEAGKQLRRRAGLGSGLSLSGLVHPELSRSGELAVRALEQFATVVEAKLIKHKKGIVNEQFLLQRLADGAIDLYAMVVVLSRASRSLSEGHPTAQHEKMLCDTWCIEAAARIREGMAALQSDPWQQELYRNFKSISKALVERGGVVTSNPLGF
UniProt Q4L235: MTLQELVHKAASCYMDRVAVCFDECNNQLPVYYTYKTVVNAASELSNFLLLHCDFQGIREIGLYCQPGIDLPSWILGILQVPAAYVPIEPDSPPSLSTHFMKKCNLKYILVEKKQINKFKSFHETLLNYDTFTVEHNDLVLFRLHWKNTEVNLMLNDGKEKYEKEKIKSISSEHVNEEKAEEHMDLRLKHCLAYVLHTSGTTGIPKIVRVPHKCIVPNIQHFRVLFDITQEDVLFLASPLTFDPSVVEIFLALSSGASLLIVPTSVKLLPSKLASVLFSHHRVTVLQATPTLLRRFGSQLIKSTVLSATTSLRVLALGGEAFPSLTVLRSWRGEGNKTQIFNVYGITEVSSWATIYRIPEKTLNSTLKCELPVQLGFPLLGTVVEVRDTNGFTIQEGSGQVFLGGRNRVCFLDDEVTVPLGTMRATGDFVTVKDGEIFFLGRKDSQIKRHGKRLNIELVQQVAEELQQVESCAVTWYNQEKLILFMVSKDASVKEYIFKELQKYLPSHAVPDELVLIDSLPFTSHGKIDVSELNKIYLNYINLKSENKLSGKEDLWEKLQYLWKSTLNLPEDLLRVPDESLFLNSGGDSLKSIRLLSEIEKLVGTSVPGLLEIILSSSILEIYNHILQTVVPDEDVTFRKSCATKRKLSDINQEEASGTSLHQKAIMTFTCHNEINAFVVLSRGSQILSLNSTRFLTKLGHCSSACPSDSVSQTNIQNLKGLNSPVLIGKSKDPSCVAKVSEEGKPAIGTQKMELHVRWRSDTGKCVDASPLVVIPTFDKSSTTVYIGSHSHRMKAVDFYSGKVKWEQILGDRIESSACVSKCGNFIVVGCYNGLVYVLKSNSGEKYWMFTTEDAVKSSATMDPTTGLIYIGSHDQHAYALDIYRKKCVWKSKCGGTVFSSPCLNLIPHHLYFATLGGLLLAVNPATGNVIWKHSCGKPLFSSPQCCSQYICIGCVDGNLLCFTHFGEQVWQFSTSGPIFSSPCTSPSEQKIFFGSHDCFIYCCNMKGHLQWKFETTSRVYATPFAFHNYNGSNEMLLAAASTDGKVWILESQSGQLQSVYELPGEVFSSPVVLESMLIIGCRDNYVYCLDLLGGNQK
UniProt P24666: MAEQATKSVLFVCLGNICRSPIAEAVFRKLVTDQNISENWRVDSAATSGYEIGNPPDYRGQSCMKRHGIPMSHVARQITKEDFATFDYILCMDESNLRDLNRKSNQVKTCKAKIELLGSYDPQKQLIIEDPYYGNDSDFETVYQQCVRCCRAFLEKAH
UniProt Q9BTE6: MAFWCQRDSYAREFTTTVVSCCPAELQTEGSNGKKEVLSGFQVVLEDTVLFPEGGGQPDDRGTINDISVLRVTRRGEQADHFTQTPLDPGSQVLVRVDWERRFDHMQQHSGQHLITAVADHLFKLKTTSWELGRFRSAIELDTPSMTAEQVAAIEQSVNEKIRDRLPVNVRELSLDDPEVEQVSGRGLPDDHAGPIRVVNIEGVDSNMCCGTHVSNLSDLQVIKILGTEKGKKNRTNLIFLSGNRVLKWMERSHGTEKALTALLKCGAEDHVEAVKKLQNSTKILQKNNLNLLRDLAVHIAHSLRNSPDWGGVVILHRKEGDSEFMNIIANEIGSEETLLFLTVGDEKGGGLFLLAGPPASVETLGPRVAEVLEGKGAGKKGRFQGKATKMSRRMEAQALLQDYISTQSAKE
UniProt P80404: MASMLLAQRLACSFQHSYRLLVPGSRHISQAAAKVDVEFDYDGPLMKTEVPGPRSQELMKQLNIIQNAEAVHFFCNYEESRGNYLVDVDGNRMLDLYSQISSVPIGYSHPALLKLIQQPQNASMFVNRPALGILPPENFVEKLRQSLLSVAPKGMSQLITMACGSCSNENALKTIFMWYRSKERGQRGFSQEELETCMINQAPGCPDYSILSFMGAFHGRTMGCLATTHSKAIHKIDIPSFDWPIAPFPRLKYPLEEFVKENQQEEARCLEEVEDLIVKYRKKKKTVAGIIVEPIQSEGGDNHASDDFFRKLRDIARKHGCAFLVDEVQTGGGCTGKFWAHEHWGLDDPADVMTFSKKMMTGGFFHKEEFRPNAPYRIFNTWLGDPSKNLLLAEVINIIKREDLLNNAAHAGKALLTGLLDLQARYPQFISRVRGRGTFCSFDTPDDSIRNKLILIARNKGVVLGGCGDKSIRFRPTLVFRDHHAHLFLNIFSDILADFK
UniProt O95342, whole entry, looked up: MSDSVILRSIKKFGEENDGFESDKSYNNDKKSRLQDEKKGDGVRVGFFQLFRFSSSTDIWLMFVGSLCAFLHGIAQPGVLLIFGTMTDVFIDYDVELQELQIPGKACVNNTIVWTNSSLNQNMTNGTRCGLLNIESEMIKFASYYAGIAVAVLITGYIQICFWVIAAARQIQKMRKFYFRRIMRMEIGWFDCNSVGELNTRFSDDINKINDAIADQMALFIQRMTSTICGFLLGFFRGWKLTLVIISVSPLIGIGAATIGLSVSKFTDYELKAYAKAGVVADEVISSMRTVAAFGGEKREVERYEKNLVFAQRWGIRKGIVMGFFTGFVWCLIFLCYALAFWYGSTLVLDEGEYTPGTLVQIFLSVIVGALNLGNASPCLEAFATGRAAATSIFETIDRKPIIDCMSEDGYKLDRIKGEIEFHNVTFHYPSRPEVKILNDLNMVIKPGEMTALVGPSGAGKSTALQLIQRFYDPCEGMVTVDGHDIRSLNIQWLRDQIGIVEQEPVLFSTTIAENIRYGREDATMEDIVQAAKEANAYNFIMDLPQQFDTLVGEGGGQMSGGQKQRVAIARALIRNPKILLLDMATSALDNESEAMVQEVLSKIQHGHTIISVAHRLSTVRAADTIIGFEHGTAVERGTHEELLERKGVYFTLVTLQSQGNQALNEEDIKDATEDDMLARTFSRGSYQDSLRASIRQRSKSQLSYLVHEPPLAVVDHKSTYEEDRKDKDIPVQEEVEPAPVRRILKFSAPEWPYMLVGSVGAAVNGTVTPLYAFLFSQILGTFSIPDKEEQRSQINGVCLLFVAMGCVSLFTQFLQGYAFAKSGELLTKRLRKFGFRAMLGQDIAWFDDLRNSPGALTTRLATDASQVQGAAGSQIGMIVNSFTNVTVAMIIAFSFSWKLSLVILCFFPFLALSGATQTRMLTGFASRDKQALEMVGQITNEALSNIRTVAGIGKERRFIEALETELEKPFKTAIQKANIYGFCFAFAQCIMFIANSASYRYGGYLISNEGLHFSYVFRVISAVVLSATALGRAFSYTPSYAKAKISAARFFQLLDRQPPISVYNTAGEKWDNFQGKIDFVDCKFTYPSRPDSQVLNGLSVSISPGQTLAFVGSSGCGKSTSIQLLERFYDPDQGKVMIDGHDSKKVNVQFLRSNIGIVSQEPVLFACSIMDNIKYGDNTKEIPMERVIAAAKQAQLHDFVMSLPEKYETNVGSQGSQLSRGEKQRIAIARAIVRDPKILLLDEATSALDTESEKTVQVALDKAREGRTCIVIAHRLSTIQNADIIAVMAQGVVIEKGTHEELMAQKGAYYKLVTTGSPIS

What was measured:
Experiment in all cases: log2 fold change, soluble protein after heating vs DMSO (PISA); higher = thermal stabilisation; K562 cells, 10 uM, 30 min; active = over 0.2 and 3.5 SD of the protein, either way, in both replicates (recomputed)
[1] = compound: C1COCCN1CCN2C3=CC=CC=C3N=C2NC(=O)C4=CC(=CC=C4)[N+](=O)[O-] [IRAK-1-4 Inhibitor I]
Method in brief: (§1)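 Quantification of soluble protein used TMTpro 16plex LC-MS/MS, with channel sums equalised. Samples were the supernatant after 21,000xg for 90 min of pooled aliquots from K562 cells (2×10^6 cells/mL) treated with 10 μM compound for 30 min, heated for 3 min over 48°C-58°C, and extracted in PBS with 0.5% NP-40 at 4°C. Values, from duplicates, describe thermal stability against control samples on a log2 fold-change scale.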

[2] = compound: C=CC(=O)N1CCC[C@@H](n2nc(-c3ccc(Oc4ccccc4)cc3)c3c(N)ncnc32)C1 [ibrutinib]
Method in brief: as §1

[3] = compound: CC(=O)c1cnc2ccc(-c3cc(Cl)c(O)c(Cl)c3)nc2c1N[C@H]1CC[C@H](CN(C)C)CC1
Method in brief: as §1

[4] = compound: CC(C)(O)CC(=O)NCCn1ccc2ncnc(Nc3ccc(Oc4cccc(C(F)(F)F)c4)c(Cl)c3)c21
Method in brief: as §1

[5] = compound: CC(C)N(C[C@H]1O[C@@H](n2cnc3c(N)ncnc32)[C@H](O)[C@@H]1O)[C@H]1C[C@@H](CCc2nc3cc(C(C)(C)C)ccc3[nH]2)C1 [pinometostat]
Method in brief: as §1

[6] = compound: CC1=C(C(CC(=O)N1)C2=CC=C(C=C2)C(F)(F)F)C(=O)NC3=C(C=C4C(=C3)C=NN4)F
Method in brief: as §1

[7] = compound: CC1=C(C2=C(C=C1)C(=O)C3=CC=CC=C3N2CCCN)C
Method in brief: as §1

[8] = compound: CC1=C(C=C(C=C1)NC(=O)C2=CC(=CC=C2)C(C)(C)C#N)NC3=CC4=C(C=C3)N=CN(C4=O)C
Method in brief: as §1

[9] = compound: CC1=CC=C(C=C1)SC2=C3C=C(SC3=CN=C2)C(=O)N
Method in brief: as §1

[10] = compound: CC1=NC(=CC=C1)C2=C(N=C(N2)C(C)(C)C)C3=CC4=NC=CN=C4C=C3
Method in brief: as §1

[11] = compound: CCCCN(Cc1ccc(C(=O)NO)cc1)C(=O)Nc1ccccc1 [Nexturastat A]
Method in brief: as §1

[12] = compound: CCCS(=O)(=O)Nc1ccc(F)c(C(=O)c2c[nH]c3ncc(Cl)cc23)c1F
Method in brief: as §1

[13] = compound: CCCc1cc(C)[nH]c(=O)c1CNC(=O)c1cc(-c2ccnc(N3CCN(C)CC3)c2)cc2c1cnn2C(C)C
Method in brief: as §1

[14] = compound: CCN(CCCOc1ccc2c(Nc3cc(CC(=O)Nc4cccc(F)c4)[nH]n3)ncnc2c1)CCOP(=O)(O)O [barasertib]
Method in brief: as §1

[15] = compound: CC(C)(C)Cn1c(N)nc2ccc(-c3[nH]c(C(C)(C)C)nc3-c3ccc(F)cc3)nc21 [ralimetinib]
Method in brief: as §1

[16] = compound: CC(C)C[C@@H](C=O)NC(=O)[C@H](CC(C)C)NC(=O)[C@H](CC(C)C)NC(=O)OCc1ccccc1
Method in brief: as §1

[17] = compound: CC1=C(C=C(C=C1)NC(=O)C2=CC(=CC=C2)N(C)C)NC(=O)C3=CC=C(C=C3)O
Method in brief: as §1

[18] = compound: CCCS(=O)(=O)Nc1ccc(F)c(C(=O)c2c[nH]c3ncc(-c4ccc(Cl)cc4)cc23)c1F [vemurafenib]
Method in brief: as §1

[19] = compound: CC(C)C1=C2N=C(C=C(N2N=C1)NCC3=CC=CC=C3)NCCCCCCN
Method in brief: as §1

[20] = compound: CCN(CC)Cc1ccc2cc(COC(=O)Nc3ccc(C(=O)NO)cc3)ccc2c1 [givinostat]
Method in brief: as §1

Row | Target | log2 fold change [1] | log2 fold change [2] | log2 fold change [3] | log2 fold change [4] | log2 fold change [5] | log2 fold change [6] | log2 fold change [7] | log2 fold change [8] | log2 fold change [9] | log2 fold change [10] | log2 fold change [11] | log2 fold change [12] | log2 fold change [13] | log2 fold change [14] | log2 fold change [15] | log2 fold change [16] | log2 fold change [17] | log2 fold change [18] | log2 fold change [19] | log2 fold change [20]
1 | ACAT1, A0A5F9ZHJ0 | inactive: 0.041 | inactive: -0.014 | inactive: 0.261 | inactive: 0.164 | inactive: 0.145 | inactive: 0.167 | inactive: -0.068 | inactive: -0.087 | inactive: -0.198 | inactive: -0.016 | inactive: -0.004 | inactive: 0.003 | inactive: -0.181 | inactive: 0.102 |  |  |  |  |  | 
2 | ABITRAM (UniProt Q9NX38) | inactive: 0.041 | inactive: 0.005 | inactive: -0.073 | inactive: -0.008 | inactive: -0.025 |  | inactive: 0.001 | inactive: 0.011 | inactive: 0.062 | inactive: 0.027 | inactive: -0.114 | inactive: 0.095 | inactive: -0.252 | inactive: 0.03 | inactive: -0.088 | inactive: 0.016 | inactive: -0.036 | inactive: 0 |  | 
3 | ABRACL (UniProt Q9P1F3) | inactive: -0.01 | inactive: 0.367 |  |  | inactive: -0.074 | inactive: 0.12 |  | inactive: 0.11 |  | inactive: -0.038 |  |  | inactive: -0.079 | inactive: 0.08 | inactive: -0.017 | inactive: -0.184 | inactive: 0.089 |  |  | 
4 | ACAD9 (UniProt Q9H845) | inactive: 0.01 | inactive: 0.005 | inactive: -0.041 | inactive: 0.007 | inactive: -0.028 |  | inactive: 0.028 | inactive: -0.022 | inactive: 0.007 | inactive: -0.001 | inactive: -0.061 | inactive: -0.019 | inactive: -0.009 | inactive: -0.011 | inactive: -0.034 | inactive: -0.036 | inactive: 0.007 | inactive: 0.053 | inactive: 0.002 | inactive: -0.012
5 | ACBD5 (UniProt Q5T8D3) | inactive: -0.179 |  | inactive: -0.002 | inactive: -0.028 | inactive: 0.107 |  | inactive: 0.329 | inactive: -0.085 | inactive: 0.083 | inactive: 0.116 | inactive: 0.132 | inactive: 0.131 | inactive: 0.157 |  | inactive: -0.044 | inactive: 0.039 | inactive: -0.084 | inactive: -0.082 | inactive: 0.094 | inactive: 0.363
6 | ABL2 (UniProt P42684) | inactive: -0.157 | inactive: 0.199 |  | inactive: -0.299 | inactive: 0.195 |  | inactive: 0.11 | inactive: -0.471 |  | inactive: -0.126 | inactive: 0 |  |  | inactive: -0.036 | inactive: 0.008 | inactive: 0.131 | inactive: -0.248 |  |  | 
7 | ADAM15 (UniProt Q13444) | inactive: -0.026 | inactive: 0.045 | inactive: -0.199 | inactive: 0.008 | inactive: 0.046 |  | inactive: 0.033 | inactive: -0.045 | inactive: 0 | inactive: -0.14 | inactive: -0.016 | inactive: 0.007 |  | inactive: -0.043 | inactive: 0.024 | inactive: 0.053 | inactive: 0.056 | inactive: -0.022 | inactive: 0.14 | inactive: 0.308
8 | ACADVL isoform 3 (UniProt P49748) | inactive: 0.038 | inactive: -0.002 | inactive: 0.005 | inactive: -0.016 | inactive: -0.067 |  | inactive: 0.002 | inactive: -0.004 | inactive: 0.024 | inactive: -0.002 | inactive: -0.073 | inactive: 0.01 | inactive: -0.002 | inactive: 0.006 | inactive: -0.015 | inactive: -0.025 | inactive: 0.01 | inactive: -0.009 | inactive: -0.013 | inactive: 0.026
9 | AASDH (UniProt Q4L235) | inactive: 0.037 | inactive: -0.308 |  | inactive: -0.15 | inactive: 0.038 |  | inactive: -0.184 | inactive: -0.001 | inactive: -0.043 | inactive: -0.056 | inactive: 0.179 | inactive: 0.103 | inactive: 0.149 | inactive: 0.09 | inactive: -0.011 | inactive: -0.066 | inactive: 0.024 | inactive: 0.094 | inactive: -0.107 | inactive: 0.033
10 | ACSS1 (UniProt Q9NUB1) | inactive: 0.046 | inactive: 0.056 | inactive: 0.042 |  | inactive: -0.129 | inactive: 0.091 | inactive: -0.303 | inactive: -0.159 | inactive: -0.016 | inactive: 0.297 |  | inactive: -0.039 | inactive: -0.017 | inactive: -0.231 | inactive: -0.024 | inactive: 0.089 | inactive: 0.014 | inactive: -0.007 | inactive: -0.002 | inactive: 0.053
11 | ABCA4 (UniProt P78363) | inactive: 0.128 | inactive: 0.078 | inactive: -0.014 | inactive: -0.047 | inactive: -0.06 |  | inactive: 0.082 | inactive: -0.145 |  | inactive: -0.168 | active: 0.576 |  | inactive: 0.033 | inactive: 0.015 | inactive: 0.215 | inactive: 0.481 | inactive: -0.068 |  | inactive: 0.127 | inactive: 0.23
12 | ABCB6 (UniProt Q9NP58) | inactive: -0.018 | inactive: 0.003 | inactive: 0.021 | inactive: -0.073 | inactive: 0.037 |  | inactive: 0.065 | inactive: 0.085 | inactive: 0.019 | inactive: 0.019 | inactive: 0.001 | inactive: -0.022 | inactive: -0.041 | inactive: 0.008 | inactive: 0.051 | inactive: -0.007 | inactive: -0.084 | inactive: 0.073 | active: -0.489 | inactive: -0.002
13 | ACIN1 (UniProt Q9UKV3) | inactive: -0.052 | inactive: 0.004 | inactive: -0.155 | inactive: 0.043 | inactive: -0.006 |  | active: -0.369 | inactive: -0.028 | inactive: -0.015 | inactive: -0.013 | inactive: 0.044 | inactive: 0.014 | inactive: 0.023 | inactive: -0.008 | inactive: 0.063 | inactive: -0.026 | inactive: 0.039 | inactive: 0 | inactive: -0.022 | inactive: 0.105
14 | ADAD1 (UniProt Q96M93) | inactive: -0.01 | inactive: -0.136 |  |  | inactive: 0.013 | inactive: 0.073 | inactive: 0.069 |  |  | inactive: -0.035 |  |  | inactive: -0.251 | inactive: 0.044 | inactive: -0.332 | inactive: 0.068 | inactive: -0.074 | inactive: -0.11 | inactive: -0.197 | inactive: 0.134
15 | ACTG1 (UniProt K7EM38) | inactive: 0.121 |  | inactive: -0.102 | inactive: 0.024 | inactive: -0.02 |  | inactive: -0.11 | inactive: 0.04 | inactive: 0.197 | inactive: -0.078 | inactive: -0.022 | inactive: -0.602 |  |  | inactive: -0.105 | inactive: 0.117 | inactive: 0.079 | inactive: 0.061 |  | 
16 | ACP1 isoform 2 (UniProt P24666) | inactive: -0.082 | inactive: -0.028 | inactive: -0.013 | active: -0.264 | inactive: 0.073 |  | active: -0.296 | inactive: 0.008 | inactive: 0.025 | inactive: -0.008 | inactive: 0.08 | inactive: 0.026 | inactive: 0.043 | inactive: 0.074 | inactive: 0.009 | inactive: -0.039 | inactive: -0.013 | inactive: 0.031 | inactive: -0.109 | inactive: 0.058
17 | AARSD1 (UniProt Q9BTE6) | inactive: 0.264 | inactive: 0.135 | inactive: 0.107 |  | inactive: 0.041 |  |  |  | inactive: 0.044 | inactive: 0.278 |  | inactive: 0.206 | inactive: 0.027 | inactive: 0.119 |  |  |  |  | inactive: -0.13 | inactive: -0.285
18 | ACYP2 (UniProt P14621) | inactive: 0.009 |  |  |  | inactive: -0.027 | inactive: 0.056 | inactive: 0.125 | inactive: -0.044 | inactive: 0.038 | inactive: 0.059 |  | inactive: -0.103 | inactive: -0.198 |  |  |  |  | inactive: 0.085 | inactive: -0.082 | inactive: -0.129
19 | ABAT (UniProt P80404) |  |  |  | inactive: 0.185 |  |  |  |  |  |  | inactive: -0.198 |  |  |  |  |  |  |  |  | 
20 | ACTRT1 (UniProt Q8TDG2) |  | inactive: -0.127 | inactive: -0.037 | inactive: -0.024 |  |  |  |  | inactive: -0.11 |  | inactive: -0.115 | inactive: -0.374 |  | inactive: 0.01 |  |  |  | inactive: -0.161 | inactive: 0.1 | inactive: 0.1
21 | ABCB11 (UniProt O95342) |  |  |  |  |  |  | inactive: 0.067 | inactive: 0.081 | inactive: -0.034 |  |  | inactive: -0.092 | inactive: -0.119 |  | inactive: -0.048 | inactive: 0.036 | inactive: -0.019 |  |  | 

Looked up above:
ACSS1 (UniProt Q9NUB1) | log2 fold change [8]: inactive: -0.159
ACTRT1 (UniProt Q8TDG2) | log2 fold change [3]: inactive: -0.037
